Assay results as given in PMC9754640, “Z-REX uncovers a bifurcation in function of Keap1 paralogs” (eLife, 2022).
No constants are given. Whether binding was seen depends on the method and setting. In cells and extracts the contact can be indirect. Some results given as binding are weak or reduced against the parent protein; the word gives no strength. Tags and fused reporters may be left off the sequences shown.

Biological target: T1, Myc-Halo-TEV-3xFlag-zKeap1a (zebrafish (Danio rerio)) (UniProt Q1ECZ2)
T1 sequence: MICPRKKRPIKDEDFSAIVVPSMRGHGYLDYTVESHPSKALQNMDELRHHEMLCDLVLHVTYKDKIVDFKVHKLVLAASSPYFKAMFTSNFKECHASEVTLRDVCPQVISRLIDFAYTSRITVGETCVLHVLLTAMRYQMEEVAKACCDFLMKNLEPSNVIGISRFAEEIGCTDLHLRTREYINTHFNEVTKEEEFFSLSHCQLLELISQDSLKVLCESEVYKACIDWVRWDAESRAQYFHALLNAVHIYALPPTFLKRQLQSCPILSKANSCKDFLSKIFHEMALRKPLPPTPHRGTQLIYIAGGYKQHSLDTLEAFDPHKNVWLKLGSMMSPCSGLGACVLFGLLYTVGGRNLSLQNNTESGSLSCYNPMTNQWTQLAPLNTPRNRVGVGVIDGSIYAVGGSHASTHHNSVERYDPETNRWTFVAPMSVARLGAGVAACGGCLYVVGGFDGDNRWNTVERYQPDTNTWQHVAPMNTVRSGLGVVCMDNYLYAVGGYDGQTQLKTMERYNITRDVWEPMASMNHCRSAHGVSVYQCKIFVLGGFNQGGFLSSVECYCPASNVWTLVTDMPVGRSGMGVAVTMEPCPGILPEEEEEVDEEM
Assay: co-IP; anti-Flag M2 agarose on normalised lysates (2 mg/mL) of HEK293T cells co-transfected with HA-Nrf2 and Halo-TEV-3xFlag-zKeap1a, -zKeap1b, both, or empty vector; cells treated with 25 uM NE or DMSO for 18 h before lysis; 50 mM Hepes pH 7.6, 150 mM NaCl, 0.1% Tween-20, overnight at 4 °C; eluted with 3xFlag peptide; western blot

binding: binds
B1: HA-Nrf2 (protein, UniProt Q16236 1-605)
chain: MMDLELPPPGLPSQQDMDLIDILWRQDIDLGVSREVFDFSQRRKEYELEKQKKLEKERQEQLQKEQEKAFFAQLQLDEETGEFLPIQPAQHIQSETSGSANYSQVAHIPKSDALYFDDCMQLLAQTFPFVDDNEVSSATFQSLVPDIPGHIESPVFIATNQAQSPETSVAQVAPVDLDGMQQDIEQVWEELLSIPELQCLNIENDKLVETTMVPSPEAKLTEVDNYHFYSSIPSMEKEVGNCSPHFLNAFEDSFSSILSTEDPNQLTVNSLNSDATVNTDFGDEFYSAFIAEPSISNSMPSPATLSHSLSELLNGPIDVSDLSLCKAFNQNHPESTAEFNDSDSGISLNTSPSVASPEHSVESSSYGDTLLGLSDSEVEELDSAPGSVKQNGPKTPVHSSGDMVQPLSPSQGQSTHVHDAQCENTPEKELPVSPGHRKTPFTKDKHSSRLEAHLTRDELRAKALHIPFPVEKIINLPVVDFNEMMSKEQFNEAQLALIRDIRRRGKNKVAAQNCRKRKLENIVELEQDLDHLKDEKEKLLKEKGENDKSLHLLKKQLSTLYLEVFSMLRDEDGKPYSPSEYSLQQTRDGNVFLVPKSKKPDVKKN
